# Measured values as given in PubChem BioAssay AID248 (DTP/NCI, 2004).
# The list is a part of this screen's results and no random one: it is rich in T/C values a quarter to a half above the control, in often repeated tests (any T/C) and in doses without a T/C. Other doses and runs of a compound stand elsewhere. T/C: endpoint of the treated group in % of that of the vehicle group. Some entries give survivors of the animals treated and no T/C: the source files T/C as zero there, which appears to mark a toxic dose or a test without result, not a measured value. Some survivor counts are full or nearly so, which does not show that the dose was tolerated: the source hardly ever lists a survival T/C far under the control, and the zero likely stands for such cases as well. Survivors were counted at the toxicity check, usually on the fifth day, unless a day is given; later deaths do not show. Schedules are NCI's codes, taken here to give the interval after Q, in days (D) or hours (H), and the number of doses after X. Some structures stand for samples that the source files as different forms (salt, stereo form or complex); doses refer to the form tested. Some schedule codes hold Z or #, which are not explained here. Where survival is the endpoint, this PubChem deposit counts one and a half times the control or more as active, and values a quarter to a half above the control carry no call in these data; other NCI protocols may use other cut-offs. Some doses were run more than once; the values are given in rising order. Some T/C values are followed by the survivors on the day toxicity was checked, most often the fifth; where none is given, no animal had died by that day.
# System: L1210 leukemia ip in BDF1 mice, survival T/C
# Assay: NCI In Vivo Anticancer Drug Screen. Data for tumor model L1210 Leukemia (intraperitoneal) in B6D2F1 (BDF1) mice
# Conditions: T/C endpoint: mean survival time, higher T/C = longer survival
# [1] = dose: 400.0 mg/kg/injection, schedule: Q01DX009 (ip), vehicle: saline
# [2] = dose: 400.0 mg/kg/injection, schedule: Q04DX003 (ip), vehicle: saline with Tween-80
# [3] = dose: 8.0 mg/kg/injection, schedule: Q01DX001 (ip), vehicle: saline
# [4] = dose: 100.0 mg/kg/injection, schedule: Q04DX003 (ip), vehicle: saline
# [5] = dose: 400.0 mg/kg/injection, schedule: Q01DX001 (ip), vehicle: saline
# [6] = dose: 400.0 mg/kg/injection, schedule: Q01DX009 (ip), vehicle: saline with Tween-80
# [7] = dose: 200.0 mg/kg/injection, schedule: Q04DX003 (ip), vehicle: saline
smiles,measurement,setting,value
Cc1ccc(Cl)c(C(=O)C(Br)C(Br)c2ccccc2)c1 (stereo not drawn),survivor count,"dose: 100.0 mg/kg/injection, schedule: Q01DX009 (ip), vehicle: saline with Tween-80",3 of 3
same,survivor count,"dose: 200.0 mg/kg/injection, schedule: Q01DX009 (ip), vehicle: saline with Tween-80",1 of 3
[Cl][Pt+2]([Cl])([Cl])[Cl].c1ccc(C2CC[N-]CC2)cc1.c1ccc(C2CC[N-]CC2)cc1,survivor count,"dose: 200.0 mg/kg/injection, schedule: Q01DX009 (ip), vehicle: water",5 of 6
same,survivor count,"dose: 400.0 mg/kg/injection, schedule: Q04DX003 (ip), vehicle: water",1 of 6
CC(C)CC(C=NCC(CCN1CCCC1)(CC(C)C)c1cccc2ccccc12)(CCN1CCCC1)c1cccc2ccccc12 (stereo not drawn),survivor count,"dose: 100.0 mg/kg/injection, schedule: Q01DX009 (ip), vehicle: saline",0 of 6
same,survivor count,"dose: 200.0 mg/kg/injection, schedule: Q01DX009 (ip), vehicle: saline",0 of 6
same,survivor count,[1],0 of 6
Cn1nc2ccccc2n1,T/C,"dose: 200.0 mg/kg/injection, schedule: Q04DX003 (ip), vehicle: saline with Tween-80",133 % of control
same,T/C,[2],125 % of control
CC[C@@]1(O)C(=O)OCc2c1cc1n(c2=O)Cc2cc3cc(O)ccc3nc2-1,T/C,"dose: 0.25 mg/kg/injection, schedule: Q01DX009 (ip), vehicle: saline",142 % of control
same,T/C,"dose: 0.5 mg/kg/injection, schedule: Q01DX009 (ip), vehicle: saline",132 % of control
same,T/C,"dose: 0.51 mg/kg/injection, schedule: Q01DX015 (ip), vehicle: saline",131 % of control
same,survivor count,"dose: 1.75 mg/kg/injection, schedule: Q01DX015 (ip), vehicle: saline",5 of 6
same,survivor count,"dose: 2.6 mg/kg/injection, schedule: Q01DX015 (ip), vehicle: saline",6 of 6
same,T/C,"dose: 3.5 mg/kg/injection, schedule: Q01DX001 (ip), vehicle: saline",136 % of control
same,survivor count,"dose: 3.9 mg/kg/injection, schedule: Q01DX015 (ip), vehicle: saline",6 of 6
same,T/C,"dose: 4.0 mg/kg/injection, schedule: Q01DX001 (ip), vehicle: saline",144 % of control
same,T/C,"dose: 4.0 mg/kg/injection, schedule: Q01DX009 (ip), vehicle: saline",125 % of control
same,T/C,"dose: 4.6 mg/kg/injection, schedule: Q01DX009 (oral), vehicle: saline, evaluated on day 30",130 % of control
same,T/C,"dose: 4.6 mg/kg/injection, schedule: Q01DX009 (oral), vehicle: saline, run until all animals had died",125 % of control
same,survivor count,"dose: 5.3 mg/kg/injection, schedule: Q01DX001 (ip), vehicle: saline",5 of 6
same,survivor count,"dose: 5.8 mg/kg/injection, schedule: Q01DX015 (ip), vehicle: saline",2 of 6
same,T/C,"dose: 7.0 mg/kg/injection, schedule: Q01DX009 (oral), vehicle: saline",139 % of control [5 of 6 alive]
same,T/C,[3],144 % of control
same,survivor count,[3],4 of 6
same,survivor count,"dose: 12.0 mg/kg/injection, schedule: Q01DX001 (ip), vehicle: saline",1 of 6
same,T/C,"dose: 16.0 mg/kg/injection, schedule: Q01DX001 (ip), vehicle: saline",139 % of control
same,survivor count,"dose: 22.0 mg/kg/injection, schedule: Q01DX009 (oral), vehicle: saline",5 of 6
same,survivor count,"dose: 32.0 mg/kg/injection, schedule: Q01DX001 (ip), vehicle: saline",1 of 4
same,T/C,"dose: 44.0 micrograms/kg/injection, schedule: Q01DX015 (ip), vehicle: saline",138 % of control
same,T/C,"dose: 66.0 micrograms/kg/injection, schedule: Q01DX015 (ip), vehicle: saline",125 % of control
same,T/C,"dose: 150.0 micrograms/kg/injection, schedule: Q01DX015 (ip), vehicle: saline",133 % of control
Cc1nc(-c2ccc(N=Cc3ccc(N(CCOS(C)(=O)=O)CCOS(C)(=O)=O)cc3)cc2)cs1,T/C,"dose: 33.0 mg/kg/injection, schedule: Q04DX003 (ip), vehicle: Klucel (hydroxypropylcellulose) (HPC)",142 % of control
same,T/C,"dose: 50.0 mg/kg/injection, schedule: Q04DX003 (ip), vehicle: Klucel (hydroxypropylcellulose) (HPC)",140 and 148 % of control
same,T/C,"dose: 75.0 mg/kg/injection, schedule: Q04DX003 (ip), vehicle: Klucel (hydroxypropylcellulose) (HPC)",137 % of control
same,survivor count,"dose: 400.0 mg/kg/injection, schedule: Q04DX003 (ip), vehicle: Klucel (hydroxypropylcellulose) (HPC)",1 of 6
CNC1(c2ccccc2)CC2CCC(C2)C1=O (stereo not drawn),survivor count,[4],1 of 6
same,survivor count,"dose: 200.0 mg/kg/injection, schedule: Q01DX001 (ip), vehicle: saline",0 of 6
same,survivor count,[5],0 of 6
CCN(CC)CC(=O)NCC(CC)(CCN1CCCCC1)c1cccc2ccccc12 (stereo not drawn),survivor count,[1],0 of 6
C[Si](C)(C)C(c1ccccc1)(c1ccccc1)c1ccccc1,survivor count,"dose: 100.0 mg/kg/injection, schedule: Q04DX003 (ip), vehicle: saline with Tween-80",6 of 6
same,survivor count,"dose: 160.0 mg/kg/injection, schedule: Q04DX002 (ip), vehicle: saline with Tween-80",3 of 3
Cc1[o+]c(C)c2c(c1C)-c1ccccc1C2=O,survivor count,[6],2 of 6
C=C1CC(c2ccc(S(=O)(=O)N3CCOCC3)cc2)OC1=O (stereo not drawn),survivor count,"dose: 400.0 mg/kg/injection, schedule: Q04DX002 (ip), vehicle: Klucel (hydroxypropylcellulose) (HPC)",0 of 3
CCOC(=O)C1C2CCCCC21 (stereo not drawn),survivor count,[5],3 of 6
CC1(C)C2CCC(CC(=O)O)C1C2 (stereo not drawn),survivor count,[2],1 of 3
Cn1nc(NC(=O)C(F)(F)F)c2ncc(-c3ccccc3)nc21,survivor count,[6],3 of 6
S=c1[nH]c2ccccc2s1,survivor count,"dose: 400.0 mg/kg/injection, schedule: Q04DX002 (ip), vehicle: saline",2 of 3
same,survivor count,[2],0 of 6
O=C(OCCn1c(-c2ccccn2)nc2ccccc21)C(O)(c1ccccc1)c1ccccc1,survivor count,"dose: 400.0 mg/kg/injection, schedule: Q01DX001 (ip), vehicle: Klucel (hydroxypropylcellulose) (HPC)",0 of 6
COc1cc2c3c(c1)/C(=N\Nc1ccccc1)CCN3CCC2,survivor count,"dose: 50.0 mg/kg/injection, schedule: Q01DX009 (ip), vehicle: DMSO",6 of 6
same,survivor count,"dose: 100.0 mg/kg/injection, schedule: Q01DX009 (ip), vehicle: DMSO",4 of 6
same,survivor count,"dose: 100.0 mg/kg/injection, schedule: Q04DX003 (ip), vehicle: gum acacia",6 of 6
same,survivor count,"dose: 400.0 mg/kg/injection, schedule: Q04DX003 (ip), vehicle: gum acacia",1 of 6
C1CC2CCCN2C1,survivor count,[4],4 of 6
same,survivor count,[7],2 of 6
same,survivor count,"dose: 400.0 mg/kg/injection, schedule: Q04DX003 (ip), vehicle: saline",1 of 6
NNC(=S)Nc1ccccc1F,survivor count,"dose: 75.0 mg/kg/injection, schedule: Q01DX001 (ip), vehicle: other",0 of 6
same,survivor count,"dose: 150.0 mg/kg/injection, schedule: Q01DX001 (ip), vehicle: other",0 of 6
same,survivor count,"dose: 300.0 mg/kg/injection, schedule: Q01DX001 (ip), vehicle: other",0 of 6
Clc1ccccc1/C=C/C=C1c2ccccc2-c2ccccc21,survivor count,[7],4 of 6
O=C(CNC(=O)Nc1ccc(C2=NCCN2)cc1)Nc1ccc(C2=NCCN2)cc1,survivor count,"dose: 36.0 mg/kg/injection, schedule: Q01DX Z (ip), vehicle: water",0 of 6
same,survivor count,"dose: 54.0 mg/kg/injection, schedule: Q01DX Z (ip), vehicle: water",0 of 6
same,survivor count,"dose: 81.0 mg/kg/injection, schedule: Q01DX Z (ip), vehicle: water",0 of 6
same,survivor count,"dose: 120.0 mg/kg/injection, schedule: Q01DX Z (ip), vehicle: water",0 of 6
O=C(/C=C/c1ccc2c(c1)OCO2)/C=C/c1ccc2c(c1)OCO2,survivor count,[1],4 of 6
Clc1[nH]nc2ccccc12,survivor count,"dose: 200.0 mg/kg/injection, schedule: Q01DX001 (ip), vehicle: saline sonified",6 of 6
same,survivor count,"dose: 400.0 mg/kg/injection, schedule: Q01DX001 (ip), vehicle: saline sonified",5 of 6
